Values from PubChem BioAssay AID1259405 (NCATS, 2018)

Test: 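Knock-downs that lift recombinant protein yield in hamster ovary cells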 (primary screen)
Cell system: Chinese hamster CHO-K1 ovary cells with stable secreted eGFP expression
Reagents: single siRNA against mouse genes, 0.8 pmol siRNA per well (2 µl of 400 nM stock)
Duration: 3 days
Read-out: 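Per-well intracellular GFP measured by laser scanning cytometry, plus viability from ATP luminescence, each relative to plate median of non-targeting control wells, in %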
Reading the numbers: GFP, % of control: higher = more GFP per well, higher productivity; viability (ATP), % of control: higher = more viable cells (more ATP)
Rule for the call: 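a knock-down is called active if GFP reaches 120% or more of non-targeting control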
The deposit covers about 50,000 reagents; shown is a part drawn at random. About 4,000 of them (8%) count as active. 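Mouse siRNA library applied to hamster cells; one well for each siRNA.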 A number with no mark means an inactive call. The numbers tell different reagents against one gene apart.

target	reagent	GFP, % of control	viability (ATP), % of control
1700037C18Rik (RIKEN cDNA 1700037C18 gene)	1	58.7	72.5
1700037C18Rik (RIKEN cDNA 1700037C18 gene)	2	52.3	77.1
1700037C18Rik (RIKEN cDNA 1700037C18 gene)	3	103	82.3
Aftph (aftiphilin)	1	72.8	55.1
Aftph (aftiphilin)	2	80.3	93.1
Aftph (aftiphilin)	3	122 (active)	122
Rnaseh1 (ribonuclease H1)	1	40.3	36.9
Rnaseh1 (ribonuclease H1)	2	98	100
Slc38a4	1	77.9	81.7
Slc38a4	2	56.4	52
Slc38a4	3	81.7	93.1
Tspan33 (tetraspanin 33)	1	83.6	43.2
Tspan33 (tetraspanin 33)	2	58.6	68.3
Tspan33 (tetraspanin 33)	3	121 (active)	73.7
Lamc3 (laminin gamma 3)	1	80.6	97.1
Lamc3 (laminin gamma 3)	2	65.2	78.2
Fam78a (family with sequence similarity 78, member A)	1	99.8	68.5
Fam78a (family with sequence similarity 78, member A)	2	66.8	68.5
Fam78a (family with sequence similarity 78, member A)	3	63.7	85.6
Scp2d1 (SCP2 sterol-binding domain containing 1)	1	73.9	60.8
Scp2d1 (SCP2 sterol-binding domain containing 1)	2	86.6	83.6
Scp2d1 (SCP2 sterol-binding domain containing 1)	3	47.3	75.6
Cdc16 (CDC16 cell division cycle 16)	1	69.1	74.1
Cdc16 (CDC16 cell division cycle 16)	2	72.1	78.3
Cdc16 (CDC16 cell division cycle 16)	3	71.5	67.6
Ltb4r1 (leukotriene B4 receptor 1)	1	63.7	85.6
Ltb4r1 (leukotriene B4 receptor 1)	2	69.4	73.3
Ltb4r1 (leukotriene B4 receptor 1)	3	71.4	70.9
Pex6 (peroxisomal biogenesis factor 6)	1	81.1	87.8
Pex6 (peroxisomal biogenesis factor 6)	2	115	91.6
Ctsl (cathepsin L)	1	93	63.8
Ctsl (cathepsin L)	2	58.1	64.9
Ctsl (cathepsin L)	3	68.7	61.3
Rprd1b (regulation of nuclear pre-mRNA domain containing 1B)	1	88.1	72.8
Rprd1b (regulation of nuclear pre-mRNA domain containing 1B)	2	85.4	66.5
Rprd1b (regulation of nuclear pre-mRNA domain containing 1B)	3	73.8	66.9
Stxbp3 (syntaxin binding protein 3)	1	65.6	52.7
Stxbp3 (syntaxin binding protein 3)	2	76.9	72.9
Stxbp3 (syntaxin binding protein 3)	3	52.3	61.3
Ammecr1l (AMME chromosomal region gene 1-like)	1	92.1	104
Ammecr1l (AMME chromosomal region gene 1-like)	2	91.6	89
Ammecr1l (AMME chromosomal region gene 1-like)	3	102	71.4
Serpina1d (serine (or cysteine) peptidase inhibitor, clade A, member 1D)	1	62.4	62.4
Serpina1d (serine (or cysteine) peptidase inhibitor, clade A, member 1D)	2	94.5	35.3
Serpina1d (serine (or cysteine) peptidase inhibitor, clade A, member 1D)	3	80.7	101
Paip2 (polyadenylate-binding protein-interacting protein 2)	1	51.6	78.1
Paip2 (polyadenylate-binding protein-interacting protein 2)	2	61.7	73.3
Paip2 (polyadenylate-binding protein-interacting protein 2)	3	56.1	110
Or52b3 (olfactory receptor family 52 subfamily B member 3)	1	115	83.8
Or52b3 (olfactory receptor family 52 subfamily B member 3)	2	64.2	87
Or52b3 (olfactory receptor family 52 subfamily B member 3)	3	28.4	87.2
Nscme3l (NSE3 homolog, SMC5-SMC6 complex component like)	1	74	60.5
Nscme3l (NSE3 homolog, SMC5-SMC6 complex component like)	2	85.1	93.2
Nscme3l (NSE3 homolog, SMC5-SMC6 complex component like)	3	99.4	65.9
Brip1 (BRCA1 interacting protein C-terminal helicase 1)	1	74.8	82.1
Brip1 (BRCA1 interacting protein C-terminal helicase 1)	2	54.3	72.5
Brip1 (BRCA1 interacting protein C-terminal helicase 1)	3	62.8	68.1
Ccr8 (C-C motif chemokine receptor 8)	1	69.9	54.8
Ccr8 (C-C motif chemokine receptor 8)	2	94.4	72.3
Ccr8 (C-C motif chemokine receptor 8)	3	165 (active)	74.5
Brix1 (BRX1, biogenesis of ribosomes)	1	74.7	45.8
Brix1 (BRX1, biogenesis of ribosomes)	2	62.9	50
Brix1 (BRX1, biogenesis of ribosomes)	3	88.6	64.7
Ralgps2 (Ral GEF with PH domain and SH3 binding motif 2)	1	40.5	33.4
Ralgps2 (Ral GEF with PH domain and SH3 binding motif 2)	2	64.4	56.5
Ralgps2 (Ral GEF with PH domain and SH3 binding motif 2)	3	55.3	52.9
Cbarp	1	107	86.9
Cbarp	2	71.9	47.4
Cbarp	3	83	70.8
Or5d38 (olfactory receptor family 5 subfamily D member 38)	1	75.7	60
Or5d38 (olfactory receptor family 5 subfamily D member 38)	2	86.7	80.3
Or5d38 (olfactory receptor family 5 subfamily D member 38)	3	216 (active)	66.3
Dcdc2a (doublecortin domain containing 2a)	1	55.6	58.6
Dcdc2a (doublecortin domain containing 2a)	2	91	67.9
Dcdc2a (doublecortin domain containing 2a)	3	146 (active)	72.1
Dcdc2a (doublecortin domain containing 2a)	4	142 (active)	93.3
Dcdc2a (doublecortin domain containing 2a)	5	101	74
Dcdc2a (doublecortin domain containing 2a)	6	102	92.7
Idh2 (isocitrate dehydrogenase 2 (NADP+), mitochondrial)	1	57.7	49.1
Idh2 (isocitrate dehydrogenase 2 (NADP+), mitochondrial)	2	70.9	95
Idh2 (isocitrate dehydrogenase 2 (NADP+), mitochondrial)	3	93.7	99.3
Entpd6 (ectonucleoside triphosphate diphosphohydrolase 6)	1	46	44.5
Entpd6 (ectonucleoside triphosphate diphosphohydrolase 6)	2	79	82.9
Entpd6 (ectonucleoside triphosphate diphosphohydrolase 6)	3	66.9	47.6
Il3ra (interleukin 3 receptor, alpha chain)	1	118	87.5
Il3ra (interleukin 3 receptor, alpha chain)	2	92.3	85.3
Il3ra (interleukin 3 receptor, alpha chain)	3	57	57.7
Gm5334 (predicted pseudogene 5334)	1	68.7	72.6
Gm5334 (predicted pseudogene 5334)	2	81.8	81.8
Gm5334 (predicted pseudogene 5334)	3	128 (active)	110
Mark3 (MAP/microtubule affinity regulating kinase 3)	1	85.7	89.7
Mark3 (MAP/microtubule affinity regulating kinase 3)	2	74.4	77
Usp15 (ubiquitin specific peptidase 15)	1	86.9	93.4
Usp15 (ubiquitin specific peptidase 15)	2	46.5	66.9
Usp15 (ubiquitin specific peptidase 15)	3	104	70
Golga4 (golgin A4)	1	56.5	61.9
Golga4 (golgin A4)	2	91.7	83.1
Golga4 (golgin A4)	3	57.6	66.2
Amh (anti-Mullerian hormone)	1	94.1	57.8
Amh (anti-Mullerian hormone)	2	20	26.2
Amh (anti-Mullerian hormone)	3	59.7	53.3
Ebf3 (early B cell factor 3)	1	121 (active)	121
Ebf3 (early B cell factor 3)	2	76.8	114
Ebf3 (early B cell factor 3)	3	104	84.3
Kpna6 (karyopherin subunit alpha 6)	1	50.3	45.5
Kpna6 (karyopherin subunit alpha 6)	2	73.5	59.4
Kpna6 (karyopherin subunit alpha 6)	3	95.4	66.9

Laid out differently: entries from further up.
Slc38a4 #2 | GFP, % of control = 56.4; viability (ATP), % of control = 52
Slc38a4 #3 | GFP, % of control = 81.7; viability (ATP), % of control = 93.1
Tspan33 (tetraspanin 33) #1 | GFP, % of control = 83.6; viability (ATP), % of control = 43.2
Tspan33 (tetraspanin 33) #2 | GFP, % of control = 58.6; viability (ATP), % of control = 68.3
Tspan33 (tetraspanin 33) #3 | GFP, % of control = 121 (active); viability (ATP), % of control = 73.7
Lamc3 (laminin gamma 3) #1 | GFP, % of control = 80.6; viability (ATP), % of control = 97.1
Lamc3 (laminin gamma 3) #2 | GFP, % of control = 65.2; viability (ATP), % of control = 78.2
Fam78a (family with sequence similarity 78, member A) #1 | GFP, % of control = 99.8; viability (ATP), % of control = 68.5
Fam78a (family with sequence similarity 78, member A) #2 | GFP, % of control = 66.8; viability (ATP), % of control = 68.5
Fam78a (family with sequence similarity 78, member A) #3 | GFP, % of control = 63.7; viability (ATP), % of control = 85.6
Scp2d1 (SCP2 sterol-binding domain containing 1) #1 | GFP, % of control = 73.9; viability (ATP), % of control = 60.8
Scp2d1 (SCP2 sterol-binding domain containing 1) #2 | GFP, % of control = 86.6; viability (ATP), % of control = 83.6
Scp2d1 (SCP2 sterol-binding domain containing 1) #3 | GFP, % of control = 47.3; viability (ATP), % of control = 75.6
